# The supplement of paper PMC8728848
# Some of the results follow.
# What was measured:
# Assay in all cases: glycan array binding signal (z-score within array); higher = stronger binding
# Conditions in all cases: glycan notation: IUPAC condensed, linker removed
# Fuc(a1-2)Gal = target: Fuc(a1-2)Gal
# How it was run: (§1)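 Columns mapping to the same glycan were averaged after glycan names were converted to IUPAC-condensed notation. The data come from 3228 arrays in the Consortium for Functional Glycomics database, limited to those with an available protein sequence. Binding is reported as a within-array Z-score averaged across arrays of one protein sequence and across linkers.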
# Fuc(a1-2)Gal(b1-3)GalNAc = target: Fuc(a1-2)Gal(b1-3)GalNAc
# How it was run: as §1
# [1] = target: Fuc(a1-2)Gal(b1-3)GalNAc(a1-3)[Fuc(a1-2)]Gal(b1-4)Glc
# How it was run: as §1
# [2] = target: Fuc(a1-2)Gal(b1-3)GalNAc(a1-3)[Fuc(a1-2)]Gal(b1-4)GlcNAc
# How it was run: as §1
# [3] = target: Fuc(a1-2)Gal(b1-3)GalNAc(b1-3)Gal
# How it was run: as §1
# [4] = target: Fuc(a1-2)Gal(b1-3)GalNAc(b1-3)Gal(a1-4)Gal(b1-4)Glc
# How it was run: as §1
# [5] = target: Fuc(a1-2)Gal(b1-3)GalNAc(b1-4)[Neu5Ac(a2-3)]Gal(b1-4)Glc
# How it was run: as §1
# Fuc(a1-2)Gal(b1-3)GlcNAc = target: Fuc(a1-2)Gal(b1-3)GlcNAc
# How it was run: as §1
# [6] = target: Fuc(a1-2)Gal(b1-3)GlcNAc(b1-2)Man(a1-3)[Fuc(a1-2)Gal(b1-3)GlcNAc(b1-2)Man(a1-6)]Man(b1-4)GlcNAc(b1-4)GlcNAc
# How it was run: as §1
# [7] = target: Fuc(a1-2)Gal(b1-3)GlcNAc(b1-2)Man(a1-3)[Fuc(a1-2)Gal(b1-3)GlcNAc(b1-2)Man(a1-6)]Man(b1-4)GlcNAc(b1-4)[Fuc(a1-6)]GlcNAc
# How it was run: as §1
# [8] = target: Fuc(a1-2)Gal(b1-3)GlcNAc(b1-3)Gal(b1-4)Glc
# How it was run: as §1
# [9] = target: Fuc(a1-2)Gal(b1-3)GlcNAc(b1-3)GalNAc
# How it was run: as §1
# [10] = target: Fuc(a1-2)Gal(b1-3)GlcNAc(b1-3)[Fuc(a1-2)Gal(b1-3)GlcNAc(b1-6)]GalNAc
# How it was run: as §1
# [11] = target: Fuc(a1-2)Gal(b1-3)GlcNAc(b1-3)[Gal(b1-4)GlcNAc(b1-6)]Gal(b1-4)Glc
# How it was run: as §1
# [12] = target: Fuc(a1-2)Gal(b1-3)GlcNAc(b1-3)[Neu5Ac(a2-6)Gal(b1-4)GlcNAc(b1-6)]Gal(b1-4)Glc
# How it was run: as §1
# [13] = target: Fuc(a1-2)Gal(b1-3)GlcNAc6S
# How it was run: as §1
# [14] = target: Fuc(a1-2)Gal(b1-3)[Fuc(a1-4)]GlcNAc
# How it was run: as §1
# [15] = target: Fuc(a1-2)Gal(b1-3)[Fuc(a1-4)]GlcNAc(b1-2)Man(a1-3)[Fuc(a1-2)Gal(b1-3)[Fuc(a1-4)]GlcNAc(b1-2)Man(a1-3)]Man(b1-4)GlcNAc(b1-4)GlcNAc
# How it was run: as §1
# [16] = target: Fuc(a1-2)Gal(b1-3)[Fuc(a1-4)]GlcNAc(b1-2)Man(a1-3)[Fuc(a1-2)Gal(b1-3)[Fuc(a1-4)]GlcNAc(b1-2)Man(a1-6)]Man(b1-4)GlcNAc(b1-4)[Fuc(a1-6)]GlcNAc(b1-4)[Fuc(a1-6)]GlcNAc
# How it was run: as §1
# [17] = target: Fuc(a1-2)Gal(b1-3)[Fuc(a1-4)]GlcNAc(b1-3)[Fuc(a1-3)[Gal(b1-4)]GlcNAc(b1-6)]Gal(b1-4)Glc
# How it was run: as §1
# [18] = target: Fuc(a1-2)Gal(b1-3)[Fuc(a1-4)]GlcNAc(b1-3)[Gal(b1-4)GlcNAc(b1-6)]Gal(b1-4)Glc
# How it was run: as §1
# Fuc(a1-2)Gal(b1-4)Glc = target: Fuc(a1-2)Gal(b1-4)Glc
# How it was run: as §1
# Fuc(a1-2)Gal(b1-4)Glc6S = target: Fuc(a1-2)Gal(b1-4)Glc6S
# How it was run: as §1
# Fuc(a1-2)Gal(b1-4)GlcNAc = target: Fuc(a1-2)Gal(b1-4)GlcNAc
# How it was run: as §1
# [19] = target: Fuc(a1-2)Gal(b1-4)GlcNAc(b1-2)Man
# How it was run: as §1
# [20] = target: Fuc(a1-2)Gal(b1-4)GlcNAc(b1-2)Man(a1-3)[Fuc(a1-2)Gal(b1-4)GlcNAc(b1-2)Man(a1-6)]Man(b1-4)GlcNAc(b1-4)GlcNAc
# How it was run: as §1
# [21] = target: Fuc(a1-2)Gal(b1-4)GlcNAc(b1-2)Man(a1-3)[Fuc(a1-2)Gal(b1-4)GlcNAc(b1-2)Man(a1-6)]Man(b1-4)GlcNAc(b1-4)[Fuc(a1-6)]GlcNAc
# How it was run: as §1
# [22] = target: Fuc(a1-2)Gal(b1-4)GlcNAc(b1-2)[Fuc(a1-2)Gal(b1-4)GlcNAc(b1-4)]Man(a1-3)[Fuc(a1-2)Gal(b1-4)GlcNAc(b1-2)Man(a1-6)]Man(b1-4)GlcNAc(b1-4)GlcNAc
# How it was run: as §1
# [23] = target: Fuc(a1-2)Gal(b1-4)GlcNAc(b1-3)Gal(b1-4)GlcNAc
# How it was run: as §1
# [24] = target: Fuc(a1-2)Gal(b1-4)GlcNAc(b1-3)Gal(b1-4)GlcNAc(b1-2)Man(a1-3)[Fuc(a1-2)Gal(b1-4)GlcNAc(b1-3)Gal(b1-4)GlcNAc(b1-2)Man(a1-6)]Man(b1-4)GlcNAc(b1-4)GlcNAc
# How it was run: as §1
# [25] = target: Fuc(a1-2)Gal(b1-4)GlcNAc(b1-3)Gal(b1-4)GlcNAc(b1-3)Gal(b1-4)GlcNAc
# How it was run: as §1
# [26] = target: Fuc(a1-2)Gal(b1-4)GlcNAc(b1-3)GalNAc
# How it was run: as §1
# [27] = target: Fuc(a1-2)Gal(b1-4)GlcNAc(b1-3)[Fuc(a1-2)Gal(b1-4)GlcNAc(b1-6)]GalNAc
# How it was run: as §1
# [28] = target: Fuc(a1-2)Gal(b1-4)GlcNAc(b1-3)[Fuc(a1-3)[Gal(b1-4)]GlcNAc(b1-6)]Gal(b1-4)Glc
# How it was run: as §1
# [29] = target: Fuc(a1-2)Gal(b1-4)GlcNAc(b1-6)GalNAc
# How it was run: as §1
# [30] = target: Fuc(a1-2)Gal(b1-4)GlcNAc6S
# How it was run: as §1
# [31] = target: Fuc(a1-2)Gal(b1-4)[Fuc(a1-3)]GlcNAc
# How it was run: as §1
# [32] = target: Fuc(a1-2)Gal(b1-4)[Fuc(a1-3)]GlcNAc(b1-2)Man(a1-3)[Fuc(a1-2)Gal(b1-4)[Fuc(a1-3)]GlcNAc(b1-2)Man(a1-6)]Man(b1-4)GlcNAc(b1-4)[Fuc(a1-6)]GlcNAc
# How it was run: as §1
# [33] = target: Fuc(a1-2)Gal(b1-4)[Fuc(a1-3)]GlcNAc(b1-2)[Fuc(a1-2)Gal(b1-4)[Fuc(a1-3)]GlcNAc(b1-4)]Man(a1-3)[Fuc(a1-2)Gal(b1-4)[Fuc(a1-3)]GlcNAc(b1-2)Man(a1-6)]Man(b1-4)GlcNAc(b1-4)GlcNAc
# How it was run: as §1
# [34] = target: Fuc(a1-2)Gal(b1-4)[Fuc(a1-3)]GlcNAc(b1-3)Gal(b1-4)[Fuc(a1-3)]GlcNAc
# How it was run: as §1
# [35] = target: Fuc(a1-2)Gal(b1-4)[Fuc(a1-3)]GlcNAc(b1-3)Gal(b1-4)[Fuc(a1-3)]GlcNAc(b1-3)Gal(b1-4)[Fuc(a1-3)]GlcNAc
# How it was run: as §1
# [36] = target: Fuc(a1-2)Gal(b1-4)[Fuc(a1-3)]GlcNAc(b1-3)GalNAc
# How it was run: as §1
# [37] = target: Fuc(a1-2)Gal(b1-4)[Fuc(a1-3)]GlcNAc(b1-3)[Neu5Ac(a2-6)Gal(b1-4)GlcNAc(b1-6)]Gal(b1-4)Glc
# How it was run: as §1
# [38] = target: Fuc(a1-2)Gal3S(b1-4)GlcNAc
# How it was run: as §1
# [39] = target: Fuc(a1-2)Gal6S(b1-3)GlcNAc
# How it was run: as §1
binder,measurement,setting,value
PhypaEULS3 (Physcomitrella patens) (protein) MLPVRLHCKADPNFNLAAVPGQGPVMVPFSPNDDFQVWYKDVTMSTRVKDETGSSAFSLINKATGQALRHAPEDLAQCLLADYDSNALDQTVLWTMSEDMGQGYCCIRLASQITRNLDVFRGDKKSGGVKEGSPVITFAWKKQDNQIWKMITAILEQKLISEEDLNSAVDHHHHHH,glycan array binding signal (z-score),Fuc(a1-2)Gal,-0.732
same,glycan array binding signal (z-score),Fuc(a1-2)Gal(b1-3)GalNAc,-0.01
same,glycan array binding signal (z-score),[1],-0.837
same,glycan array binding signal (z-score),[2],0.874
same,glycan array binding signal (z-score),[3],1.04
same,glycan array binding signal (z-score),[4],0.597
same,glycan array binding signal (z-score),[5],0.158
same,glycan array binding signal (z-score),Fuc(a1-2)Gal(b1-3)GlcNAc,-0.291
same,glycan array binding signal (z-score),[6],-0.748
same,glycan array binding signal (z-score),[7],0.789
same,glycan array binding signal (z-score),[8],1.06
same,glycan array binding signal (z-score),[9],-0.129
same,glycan array binding signal (z-score),[10],-1.26
same,glycan array binding signal (z-score),[11],1.49
same,glycan array binding signal (z-score),[12],1.2
same,glycan array binding signal (z-score),[13],0.008
same,glycan array binding signal (z-score),[14],0.084
same,glycan array binding signal (z-score),[15],1.81
same,glycan array binding signal (z-score),[16],1.62
same,glycan array binding signal (z-score),[17],-0.777
same,glycan array binding signal (z-score),[18],0.267
same,glycan array binding signal (z-score),Fuc(a1-2)Gal(b1-4)Glc,-1.92
same,glycan array binding signal (z-score),Fuc(a1-2)Gal(b1-4)Glc6S,-1.86
same,glycan array binding signal (z-score),Fuc(a1-2)Gal(b1-4)GlcNAc,0.243
same,glycan array binding signal (z-score),[19],1.32
same,glycan array binding signal (z-score),[20],-0.351
same,glycan array binding signal (z-score),[21],0.143
same,glycan array binding signal (z-score),[22],-0.267
same,glycan array binding signal (z-score),[23],1.14
same,glycan array binding signal (z-score),[24],0.946
same,glycan array binding signal (z-score),[25],0.095
same,glycan array binding signal (z-score),[26],0.368
same,glycan array binding signal (z-score),[27],0.099
same,glycan array binding signal (z-score),[28],-1.98
same,glycan array binding signal (z-score),[29],-1.07
same,glycan array binding signal (z-score),[30],1.08
same,glycan array binding signal (z-score),[31],-0.057
same,glycan array binding signal (z-score),[32],1.06
same,glycan array binding signal (z-score),[33],1.21
same,glycan array binding signal (z-score),[34],-0.629
same,glycan array binding signal (z-score),[35],-0.477
same,glycan array binding signal (z-score),[36],1.99
same,glycan array binding signal (z-score),[37],0.284
same,glycan array binding signal (z-score),[38],-0.262
same,glycan array binding signal (z-score),[39],1.58

# Three neighbouring records from above, quoted:
binder,measurement,setting,value
PhypaEULS3 (Physcomitrella patens) (protein) MLPVRLHCKADPNFNLAAVPGQGPVMVPFSPNDDFQVWYKDVTMSTRVKDETGSSAFSLINKATGQALRHAPEDLAQCLLADYDSNALDQTVLWTMSEDMGQGYCCIRLASQITRNLDVFRGDKKSGGVKEGSPVITFAWKKQDNQIWKMITAILEQKLISEEDLNSAVDHHHHHH,glycan array binding signal (z-score),[33],1.21
same,glycan array binding signal (z-score),[34],-0.629
same,glycan array binding signal (z-score),[35],-0.477
